PubChem BioAssay AID1259308 | NCATS, 2017
Assay: 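Knock-downs that increase output of a recombinant reporter protein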 (primary screen). Cells: human HEK293 embryonic kidney cells stably expressing firefly luciferase (HEK-CMV-Luc2-Hygro). Knock-down reagent: single siRNA against human genes, 0.8 pmol siRNA per well. Time to read-out: 72 h. Read-out: 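Reporter luminescence and viable-cell signal on separate replicate plates, given as percent of non-targeting control and median/MAD z-scores, plus per-cell luciferase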. Scale: total luciferase, z-score and total luciferase, % of control: higher = more reporter protein produced. Hit rule: 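Active when the median/MAD z-score for overall luciferase is greater than 3; a gene was taken forward for validation with new siRNAs if at least two of its three siRNAs passed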. Meaning of the calls: active = raised luciferase; inactive = no rise.
Here is an unselected part of about 59,000 reagents. Over the whole deposit, about 1,510 (2.6%) were called active. 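Calls use total luciferase alone and ignore viability, so some active siRNAs may act by altering cell number.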 A number with no mark means an inactive call. Reagents against one gene are numbered here. Further read-outs or replicates are left out here.

For CDON (cell adhesion associated, oncogene regulated) #1, the values are total luciferase, z-score 1.89; total luciferase, % of control 119.
Knock-down of CDON (cell adhesion associated, oncogene regulated) #2 resulted in: total luciferase, z-score 0.159; total luciferase, % of control 85.1.
Silencing of CDON (cell adhesion associated, oncogene regulated) #3 resulted in: total luciferase, z-score -0.0303; total luciferase, % of control 81.3.
With knock-down of FGF21 (fibroblast growth factor 21) #1, the screen gave total luciferase, z-score -2.25; total luciferase, % of control 37.1.
Against FGF21 (fibroblast growth factor 21) #2, the entry reads total luciferase, z-score -0.871; total luciferase, % of control 64.6.
For FGF21 (fibroblast growth factor 21) #3, the values are total luciferase, z-score 0.109; total luciferase, % of control 84.
Knock-down of PPDPFL #1 gave: total luciferase, z-score 1.37; total luciferase, % of control 109.
After knock-down of PPDPFL #2, the screen gave total luciferase, z-score 0.192; total luciferase, % of control 85.7.
PPDPFL #3 scored total luciferase, z-score -0.38; total luciferase, % of control 74.3.
Depletion of ALPI (alkaline phosphatase, intestinal) #1 resulted in: total luciferase, z-score -0.206; total luciferase, % of control 77.8.
After knock-down of ALPI (alkaline phosphatase, intestinal) #2 the results were total luciferase, z-score 1.08; total luciferase, % of control 103.
After knock-down of ALPI (alkaline phosphatase, intestinal) #3, the screen gave total luciferase, z-score -0.987; total luciferase, % of control 62.3.
ALDOB (aldolase, fructose-bisphosphate B) #1 gave total luciferase, z-score 1.53; total luciferase, % of control 112.
Knock-down of ALDOB (aldolase, fructose-bisphosphate B) #2 came out at: total luciferase, z-score -1.33; total luciferase, % of control 55.5.
For ALDOB (aldolase, fructose-bisphosphate B) #3, the entry reads total luciferase, z-score 0.0529; total luciferase, % of control 82.9.
With knock-down of OR1N1 (olfactory receptor family 1 subfamily N member 1) #1 the results were total luciferase, z-score 2.5; total luciferase, % of control 132.
For OR1N1 (olfactory receptor family 1 subfamily N member 1) #2 the deposit lists total luciferase, z-score -1.32; total luciferase, % of control 55.7.
For OR1N1 (olfactory receptor family 1 subfamily N member 1) #3 the deposit lists total luciferase, z-score 0.915; total luciferase, % of control 100.
ATP5F1C (ATP synthase F1 subunit gamma) #1 showed total luciferase, z-score -0.273; total luciferase, % of control 76.5.
With knock-down of ATP5F1C (ATP synthase F1 subunit gamma) #2, the screen gave total luciferase, z-score -0.398; total luciferase, % of control 74.
ATP5F1C (ATP synthase F1 subunit gamma) #3 gave total luciferase, z-score 0.907; total luciferase, % of control 99.9.
ERAP1 (endoplasmic reticulum aminopeptidase 1) #1 scored total luciferase, z-score -0.196; total luciferase, % of control 78.
ERAP1 (endoplasmic reticulum aminopeptidase 1) #2 showed total luciferase, z-score 0.296; total luciferase, % of control 87.8.
ERAP1 (endoplasmic reticulum aminopeptidase 1) #3 showed total luciferase, z-score -1.28; total luciferase, % of control 56.4.
MAK (male germ cell associated kinase) #1 scored total luciferase, z-score 0.168; total luciferase, % of control 85.2.
MAK (male germ cell associated kinase) #2 gave total luciferase, z-score 0.417; total luciferase, % of control 90.2.
For MAK (male germ cell associated kinase) #3, the entry reads total luciferase, z-score -0.703; total luciferase, % of control 67.9.
For NEK7 (NIMA related kinase 7) #1, the values are total luciferase, z-score -1.3; total luciferase, % of control 56.1.
Knock-down of NEK7 (NIMA related kinase 7) #2 resulted in: total luciferase, z-score -0.497; total luciferase, % of control 72.
Silencing of NEK7 (NIMA related kinase 7) #3 gave: total luciferase, z-score 0.0213; total luciferase, % of control 82.3.
After knock-down of LAMC1 (laminin subunit gamma 1) #1 the results were total luciferase, z-score 0.0487; total luciferase, % of control 82.9.
With knock-down of LAMC1 (laminin subunit gamma 1) #2 the results were total luciferase, z-score -0.488; total luciferase, % of control 72.2.
With knock-down of LAMC1 (laminin subunit gamma 1) #3, the record shows total luciferase, z-score -3.45; total luciferase, % of control 13.3.
